Results: patent US9921225B2, “Phenyl glyoxal probes” (The Scripps Research Institute, priority 2012, dated 2018)

Test: Amino acid selectivity of Rh-PG (LC-MS) and cysteine cross-reactivity
Method: Amino Acid Selectivity of Rh-PG: Various amino acids (100 mM; i.e., citrulline, Arg, Lys, Asp, Glu, Thr, Ser, Tyr, Gln, Asn, Cys, Met, His, cystine, and homocitrulline) were prepared in 50 mM HEPES (250 μL; pH 7.6). To this was added 20% TCA and 0.1 mM Rh-PG and samples were incubated at 37° C. for 30 min. Samples were analyzed by LC-MS (H2O:ACN+0.1% formic acid gradient) and the ratio of unmodified to amino acid modified Rh-PG determined.
Peptide Analysis of Cysteine Cross-Reactivity: To test the hypothesis that the Cys-Rh-PG complex was not stable at neutral pH, a peptide containing both citrulline and Cys (i.e., Ac-AHACitACARA-NH2) was synthesized using standard Fmoc strategies and purified by reverse-phase HPLC. Three aliquots of this peptide (0.5 mM) were prepared in 50 mM HEPES (pH 7.6). Samples were treated as follows; 1. untreated; 2. treated with PG (5 mM) and 20% TCA; and 3. treated with PG (5 mM) and 20% TCA. Samples were incubated at 37° C. for 30 min. Samples 1 and 2 were analyzed directly by MALDI-TOF. Sample 3 was first neutralized to a pH of ˜7.5 using 3 M NaOH, followed by MALDI-TOF analysis.

Structure (SMILES) | reaction with the Rh-PG probe (selectivity analysis) | amino acids modified by Rh-PG (acidic conditions (20% TCA), 37° C., 30 min, excess amino acid) | selectivity versus Cys (gel-based method with neutralization step prior to gel loading)
NC(=O)[C@H](CCCN=C(N)CCl)NC(=O)c1ccccc1 [Cl-amidine] | does not react with the probe |  | 
CC(C(=O)Nc1cccc(C(=O)C=O)c1)n1cc(CNC(=O)c2ccc3c(c2)C2(OC3=O)c3ccc(N(C)C)cc3Oc3cc(N(C)C)ccc32)nn1 (stereo not drawn) [Rh-PG, N-(3-Glyoxyl)phenylamino)propionyl)-1H-1,2,3-triazol-4-yl)methyl-5(6)-carboxamidotetramethyl rhodamine hydrate] |  | reacted selectively with citrulline, homo-citrulline, and cysteine | ≥ 650 fold
